Assay results from PubChem BioAssay AID493014 (National Center for Advancing Translational Sciences (NCATS), 2011).
In all, about 340,000 compounds went through this assay and about 170 (0.05%) were called active. Inconclusive results, whose numbers are uncertain, are shown with a selection of clear calls. Calls follow the shape of the dose curve; as a rule, active = well fitted inhibition curve with a large enough effect in the signal ratio, with a control signal flat (not every such curve was filed as active); inconclusive = small, poorly fitted or top-dose-only effect, or effect the other way, or a change in a side signal; inactive = flat fitted curve, though single readings scatter; the % refers to the signal ratio. Potencies beside an inconclusive call are fits to weak or partial responses and may not hold up.
Potency is read from the fitted curve at half-maximal effect.

Assay: qHTS Assay to Find Inhibitors of Chronic Active B-Cell Receptor Signaling;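 as to activity change, negative = inhibition: plate controls were basal doxycycline-induced cells for no effect and cells given 10 µM MG132 for full effect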
Conditions: ABC-DLBCL IkBa-CBG/CBR reporter, luminescence ratio (green luciferase fused to IkBa over red control in TMD8 lymphoma cells), 4 h; activity change, negative = inhibition: at 46.1 µM (top of the series)
Summary of the method: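 Doxycycline induced both beetle luciferases in TMD8 lymphoma cells; IKK-driven degradation limits the IkappaBalpha-fused green signal, while red luminescence normalises for cell number and nonspecific effects. Compounds tested up to 46 uM, 4 hrs.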
For `C[C@H](CO)N1C[C@H](C)[C@@H](CN(C)C(=O)Nc2ccc3c(c2)OCO3)Oc2c(NS(=O)(=O)c3ccc(F)cc3)cccc2C1=O`, the activity change, negative = inhibition was “inactive”.
In the case of `O=C(OCc1nnc(-c2ccccc2)o1)c1ccc2ccccc2n1`, the activity change, negative = inhibition is reported as inconclusive: 4.12%.
In the case of `C[C@]12c3[nH]c4ccc(Cl)cc4c3CCN1C(=O)[C@@H](CC(=O)NCC13CC4CC(CC(C4)C1)C3)C[C@@H]2C(=O)N1CCOCC1`, the activity change, negative = inhibition is reported as inconclusive: 4.89%.
With `S=C(NCc1ccncc1)Nc1cc(Cl)cc(Cl)c1` the activity change, negative = inhibition was “inactive”.
In the case of `CCOc1ccc2nnc(-c3ccc(Br)cc3)n2n1`, the activity change, negative = inhibition is reported as inconclusive: 11.3%.
For `COc1ccc(C(=O)Nc2ccc3c(c2)C(=O)NC3=O)cc1`, the Potency was inconclusive: 2.82 µM [falling, full curve, poor fit].
In the case of `CC1CCN(CCc2nc3cc(NS(=O)(=O)c4ccccc4)ccc3n2C)CC1`, the Potency is reported as inconclusive: 35.5 µM [falling, partial curve, poor fit].
In the case of `O=C(Cn1cnc2c(oc3nc4c(cc32)CCCC4)c1=O)Nc1cccc(Cl)c1`, the activity change, negative = inhibition is reported as “inactive”.
With `O=C(N/N=C/c1ccncc1)c1cc2ccccc2cc1O` the Potency was inconclusive: 31.6 µM [rising, single point].
With `Cc1nc2sc3c(c2c(=O)[nH]1)CCCC3` the activity change, negative = inhibition was inconclusive: 14%.
With `COc1cccc(C(=O)n2cnnc2N)c1OC` the activity change, negative = inhibition was inconclusive: -10.3%.
For `CC(=O)N(CCS(=O)(=O)c1ccc(Cl)cc1)Cc1cccs1`, the activity change, negative = inhibition was inconclusive: 3.73%.
With `COc1ccc(/C=N/NC(=O)c2ccc(NC(C)=O)cc2)cc1COc1ccc(F)cc1F` the activity change, negative = inhibition was inconclusive: 1.16%.
In the case of `O=C(COC(=O)CNC(=O)c1ccccc1)NCCc1ccccc1`, the activity change, negative = inhibition is reported as “inactive”.
For `CCOC(=O)/C=C1\Nc2ccccc2OC1=O`, the Potency was inconclusive: 18.4 µM [falling, partial curve].
For `CCOCCCNCc1ccc(OCc2ccccc2C)c(OC)c1`, the activity change, negative = inhibition was inconclusive: -12.8%.
For `CN(CC1CCN(CCc2cccc(C(F)(F)F)c2)CC1)C(=O)c1ccc(F)cc1`, the activity change, negative = inhibition was “inactive”.
In the case of `Cc1cc(/C=C(\C#N)c2nc3ccccc3[nH]2)c(C)n1C`, the activity change, negative = inhibition is reported as inconclusive: -0.33%.
For `O=C(N/C(=C\c1cccc([N+](=O)[O-])c1)C(=O)N1CCOCC1)c1ccco1`, the activity change, negative = inhibition was “inactive”.
For `CC(=O)/C(=C/Nc1ccc(Oc2ccccc2)cc1)c1ccccc1`, the activity change, negative = inhibition was inconclusive: 8.31%.
With `Cc1cccc(S(=O)(=O)N2CN(Cc3ccco3)c3nc4ccccc4nc32)c1` the activity change, negative = inhibition was inconclusive: -0.248%.
With `O=C(NCCC1=CCCCC1)C(=O)NCC1OCCCN1S(=O)(=O)c1cc(F)ccc1F` (stereo not drawn) the activity change, negative = inhibition was inconclusive: -1.71%.
With `COc1cc(/C=C(/C#N)c2ccc(F)cc2)ccc1OCc1ccc(C(=O)O)o1` the activity change, negative = inhibition was inconclusive: 4.44%.
In the case of `Cc1ccc(-c2noc(CN(C(=O)Cc3ccccc3)C(C)C)n2)cc1`, the activity change, negative = inhibition is reported as inconclusive: 0.24%.
With `c1csc(CNCc2ccncc2)c1` the activity change, negative = inhibition was “inactive”.
For `Brc1cc2c(cc1-c1nc3ccccc3s1)OCO2`, the activity change, negative = inhibition was inconclusive: 4.35%.
For `Cc1[nH]nc2c1C(c1ccoc1)C(C#N)=C(N)O2` (stereo not drawn), the activity change, negative = inhibition was inconclusive: -11.6%.
For `CC1CCN(S(=O)(=O)c2cccc(C(=O)Nc3nncs3)c2)CC1`, the activity change, negative = inhibition was “inactive”.
With `NS(=O)(=O)c1cc(C(=O)OCC(=O)N2CCc3ccccc3C2)ccc1Cl` the activity change, negative = inhibition was inconclusive: -1.91%.
With `CSc1cccc(NC(=O)CC2Oc3ccccc3NC2=O)c1` (stereo not drawn) the activity change, negative = inhibition was inconclusive: 1.06%.
With `Cc1cc(C)cc(N(C(=O)C2CCCC2)C2C=CS(=O)(=O)C2)c1` (stereo not drawn) the activity change, negative = inhibition was inconclusive: -4.3%.
In the case of `Cc1ccc(CNC(=O)CCn2cc(-c3ccc(C)cc3)nc2CCN)cc1`, the activity change, negative = inhibition is reported as “inactive”.
In the case of `COc1ccc(CCC(=O)NNC(=S)NCc2ccc(F)cc2)cc1`, the activity change, negative = inhibition is reported as “inactive”.
In the case of `CCCNc1nc(C)cc(-c2cc(-c3ccccc3)on2)n1`, the activity change, negative = inhibition is reported as inconclusive: 4.84%.
With `O=C(O)c1cccc(Nc2nc(-c3cc4ccccc4oc3=O)cs2)c1` the Potency was inconclusive: 11.2 µM [falling, partial curve].
With `Cc1cccc(-c2cc3nc(-c4ccccc4)cc(=O)n3[nH]2)c1` the Potency was inconclusive: 5.62 µM [rising, single point].
With `Cc1ccc(C(C(=O)NC(C)(C)C)N(C(=O)c2csnn2)c2cccc(F)c2)o1` (stereo not drawn) the activity change, negative = inhibition was inconclusive: -0.997%.
In the case of `CCCCOC(=O)Nc1ccc2c(C)cc(=O)oc2c1`, the Potency is reported as inconclusive: 2.59 µM [rising, partial curve, poor fit].
With `COc1ccc(Cl)cc1/C=N/NC(=O)c1c(-c2ccccc2)noc1C` the activity change, negative = inhibition was inconclusive: 2.38%.
In the case of `CCOC(=O)c1ccc(N2CCN(c3cc(C)ccc3C)CC2)c(NC(=O)Nc2ccc(CC)cc2)c1`, the activity change, negative = inhibition is reported as “inactive”.
With `COc1ccc2c(c1)CCc1c(C(=O)N3CCOCC3)noc1-2` the activity change, negative = inhibition was inconclusive: -1%.
In the case of `CCCOc1cccc(C(=O)Nc2cccc(-c3nc4ncccc4o3)c2C)c1`, the activity change, negative = inhibition is reported as inconclusive: 7.08%.
With `O=C(Nc1ccccc1)Nc1cccc(Cl)c1Cl` the activity change, negative = inhibition was inconclusive: -8.15%.
In the case of `CCOC(=O)C1CCCN(C(=O)c2cccs2)C1` (stereo not drawn), the activity change, negative = inhibition is reported as inconclusive: 1.44%.
With `CC(C)(C)c1[nH]nc2c1C(C1C=CCCC1)C(C#N)=C(N)O2` (stereo not drawn) the Potency was inconclusive: 29.1 µM [falling, single point].
With `Cc1ccc(NS(=O)(=O)c2c(C(=O)N3CCCCCC3)c(C)n(C)c2C)cc1C` the activity change, negative = inhibition was “inactive”.
In the case of `c1ccc2c(c1)Cc1cc3ccccc3nc1-2`, the activity change, negative = inhibition is reported as inconclusive: 0.421%.
For `Cc1nnc(N2CCC(C(=O)N3CCCCCC3)CC2)c2nn(-c3ccc(Cl)cc3)c(C)c12`, the activity change, negative = inhibition was inconclusive: 0.763%.
For `N#C/C(=C\c1ccc(-c2cccc(Cl)c2)o1)C(=O)Nc1cccc2cccnc12`, the activity change, negative = inhibition was inconclusive: 2.36%.
With `Cc1cccc(NC(=O)c2ccc(COc3ccc(Cl)cc3Cl)o2)n1` the activity change, negative = inhibition was inconclusive: -16.5%.
For `CCCN1C2=NS(=O)(=O)CCN2c2ccccc21`, the activity change, negative = inhibition was inconclusive: 4.39%.
With `O=C(Nc1nc(-c2ccccn2)cs1)C1COc2ccccc2O1` (stereo not drawn) the activity change, negative = inhibition was inconclusive: -27%.
In the case of `O=C(C1CCCN(S(=O)(=O)c2ccc(F)cc2)C1)N(Cc1cccs1)C1CC1` (stereo not drawn), the activity change, negative = inhibition is reported as inconclusive: -2.16%.
With `CC1CCC(NC(=O)c2ccc3c(c2)OCO3)CC1` (stereo not drawn) the Potency was inconclusive: 35.5 µM [falling, partial curve, poor fit].
For `CCOC(=O)Cc1csc(NC(=O)COc2ccc(N(C)S(=O)(=O)c3cccs3)cc2)n1`, the activity change, negative = inhibition was inconclusive: -17.6%.
For `COc1ccccc1N1CCN(C(=O)CSc2ccccc2)CC1`, the activity change, negative = inhibition was inconclusive: 11.3%.
For `CSc1ccc(-c2sc(Nc3cccc4ccccc34)n[n+]2-c2ccccc2)cc1`, the activity change, negative = inhibition was inconclusive: -4.76%.
In the case of `Cc1ccc(C(C)(C)C)cc1S(=O)(=O)Nc1ncnc2sccc12`, the activity change, negative = inhibition is reported as “inactive”.
With `COc1ccc(OC)c(-c2nnc3n2N=C(c2ccc(OC(F)F)c(OCC4CC4)c2)CS3)c1` the Potency was inconclusive: 14.6 µM [cytotoxic, partial curve].
With `COc1ccc(NS(=O)(=O)c2cccc(NC(=O)c3ccc(Cl)nc3)c2)cc1` the activity change, negative = inhibition was inconclusive: -1.01%.
With `COc1cc(C(C)=O)ccc1OCCCOc1cccc2cccnc12` the activity change, negative = inhibition was inconclusive: -4.58%.
With `CCOC(=O)c1cnc(-n2cc(C)cn2)nc1NCc1ccc2c(c1)OCO2` the activity change, negative = inhibition was “inactive”.
In the case of `CCOc1ccc(C(=O)OCC(=O)N2CCCC2)cc1`, the activity change, negative = inhibition is reported as inconclusive: 0.167%.
With `CCN(CC)S(=O)(=O)c1ccc(N2CCCC2)c(NC(=O)c2nn(C)c(=O)c3ccccc23)c1` the activity change, negative = inhibition was inconclusive: -1.16%.
With `C#CC(C)(CC)NC(=O)Cn1nnc(-c2cccc(C(F)(F)F)c2)n1` (stereo not drawn) the activity change, negative = inhibition was inconclusive: 17.5%.
In the case of `COc1ccc(-c2cn[nH]c2-c2ccc(OCc3ccccc3)cc2O)cc1OC`, the Potency is reported as inconclusive: 1 µM [falling, partial curve].
With `CCCCCOC(=O)c1[nH]c2c(c1C)C(=O)C(C(=O)OC)C(C)C2` (stereo not drawn) the activity change, negative = inhibition was “inactive”.
In the case of `CCOc1ccccc1NC=C1C(=O)OC2(CCCCC2)OC1=O`, the activity change, negative = inhibition is reported as inconclusive: 3.75%.
In the case of `N#Cc1c(C(F)(F)F)cc(-c2cccc(Cl)c2)[nH]c1=O`, the activity change, negative = inhibition is reported as inconclusive: -13.8%.
With `CCN(CC)C(=O)/C(=C\c1ccc(Br)cc1)NC(=O)c1ccccc1OC` the activity change, negative = inhibition was “inactive”.
For `O=C1COc2ccc(C(=O)c3ccccc3C(=O)NCc3ccco3)cc2N1`, the Potency was inconclusive: 29.1 µM [falling, single point].
In the case of `BrC(=C\c1ccccc1)/C=N/Nc1nc2ccccc2[nH]1`, the activity change, negative = inhibition is reported as inconclusive: -11.2%.
With `CCC1CCCCN1CC(=O)Nc1cc(C)nn1-c1nc(C)cc(C)n1` (stereo not drawn) the Potency was inconclusive: 31.6 µM [falling, single point].
For `CC(=O)Oc1ccc(N(C(C)=O)S(=O)(=O)c2ccc(Cl)cc2)c2ccccc12`, the Potency was inconclusive: 12.6 µM [cytotoxic, partial curve].
With `O=C(COC(=O)/C=C/c1ccccc1Cl)NC(=O)NCc1ccccc1` the activity change, negative = inhibition was inconclusive: 4.82%.
With `OC(CN1CCOCC1)C12CC3CC(CC(C3)C1)C2` (stereo not drawn) the activity change, negative = inhibition was inconclusive: -2.13%.
For `O=C(N/N=C/c1ccco1)c1cccc(N2Cc3ccccc3C2)c1`, the Potency was inconclusive: 11.2 µM [falling, partial curve, poor fit].
For `Cc1cc(C)cc(OCC(=O)N(C)CC(=O)Nc2ccc(N3CCOCC3)cc2)c1`, the activity change, negative = inhibition was inconclusive: 4.14%.
In the case of `Cc1ccc(C(=O)c2oc3ccccc3c2N)cc1`, the activity change, negative = inhibition is reported as “inactive”.
In the case of `O=C(O)c1ccc(N/N=C/c2cc3cc4c(cc3nc2Cl)OCCO4)cc1`, the Potency is reported as inconclusive: 4.47 µM [falling, full curve].
In the case of `COc1cc(OC)cc(C(=O)NC(=S)NNC(=O)[C@H]2C[C@@H]2c2ccccc2)c1`, the activity change, negative = inhibition is reported as “inactive”.
For `COc1ccc(NC(=O)/C(N=Nc2cc(S(=O)(=O)Nc3ccc(OC)cc3)ccc2OC)=C(\C)O)cc1`, the activity change, negative = inhibition was inconclusive: 3.42%.
For `Cc1cc(NC(=O)CSc2nc(C3CC3)nc3sc(C)c(C)c23)no1`, the Potency was inconclusive: 16.4 µM [falling, partial curve, poor fit].
